Record: PubChem BioAssay AID743454 (Peter MacCallum Cancer Centre, 2014)
The deposit covers about 18,000 reagents; this is a part drawn at random. Over the whole deposit, 450 (2.5%) are marked active. 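Single biological run; no consistent viability z cut-off exists, so the class columns, not z-scores, define the calls.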

- Screen: 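Search for knock-downs that restore vorinostat killing in resistant colon cancer cells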 (primary screen)
- System: human HCT116-VR colon cancer cells, selected for vorinostat resistance
- Reagents: siRNA pool against human genes, 40 nM siRNA pool
- Time to read-out: vorinostat for 24 h, read-out about 72 h after transfection
- Challenge: vorinostat at 2.5 µM final
- Read-out: 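Cell viability by CellTiter-Fluor and caspase 3/7 activity by luminescence, each scaled to mock wells per plate, duplicates averaged, then robust z-scored over all plates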
- Direction: viability robust z-score: higher = more viable cells than screen typical; caspase robust z-score: higher = more caspase 3/7 activity than screen typical
- Active means: 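Hits are knock-downs in viability class RV1/RV2 or caspase class CA1/CA2, excluding ones that killed cells in the no-drug cell-count arm; hits then retested with single siRNAs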

target | viability hit class | caspase hit class | viability robust z-score | caspase robust z-score | call
PCDHA13 | no change | no change | 0.16 | 1.33 | inactive
ENO1 | no change | no change | 0.24 | -0.74 | inactive
IL18RAP | no change | no change | 0.36 | -0.26 | inactive
ZNF630 | no change | no change | -1.73 | -1.02 | inactive
TAS2R31 | no change | no change | -1.29 | -0.83 | inactive
REEP4 | no change | no change | -1.4 | 0.55 | inactive
OR51T1 | no change | no change | -2.22 | 2.1 | inactive
USP10 | no change | no change | 1.06 | 0 | inactive
ZFC3H1 | no change | no change | 0.61 | 0.56 | inactive
COX17 | no change | no change | 1.82 | 0.33 | inactive
CIMAP2 | no change | no change | -0.18 | 0.68 | inactive
FCGR2C | no change | no change | -0.57 | 0.4 | inactive
ZNF165 | no change | no change | -0.82 | 0.15 | inactive
MLLT6 | no change | no change | -1.49 | 1.27 | inactive
FEV | no change | no change | -0.22 | 2.08 | inactive
SYT3 | no change | no change | -1.52 | -0.32 | inactive
SF3B2 | no change | no change | -3.59 | 2.58 | inactive
CPLX4 | no change | no change | 0.27 | -0.36 | inactive
TLR3 | no change | no change | 1.88 | -1.01 | inactive
LILRB1 | no change | no change | -0.57 | 3.25 | inactive
TSC22D4 | no change | no change | 1.1 | -0.38 | inactive
MRAP2 | no change | no change | -0.24 | -0.43 | inactive
CYP2U1 | no change | no change | -0.32 | 1.56 | inactive
ZMAT2 | no change | no change | -1.63 | 0.93 | inactive
HELZ2 | no change | no change | 1.35 | -0.26 | inactive

12 neighbouring reagents from above, for reference:
target | viability hit class | caspase hit class | viability robust z-score | caspase robust z-score | call
MLLT6 | no change | no change | -1.49 | 1.27 | inactive
FEV | no change | no change | -0.22 | 2.08 | inactive
SYT3 | no change | no change | -1.52 | -0.32 | inactive
SF3B2 | no change | no change | -3.59 | 2.58 | inactive
CPLX4 | no change | no change | 0.27 | -0.36 | inactive
TLR3 | no change | no change | 1.88 | -1.01 | inactive
LILRB1 | no change | no change | -0.57 | 3.25 | inactive
TSC22D4 | no change | no change | 1.1 | -0.38 | inactive
MRAP2 | no change | no change | -0.24 | -0.43 | inactive
CYP2U1 | no change | no change | -0.32 | 1.56 | inactive
ZMAT2 | no change | no change | -1.63 | 0.93 | inactive
HELZ2 | no change | no change | 1.35 | -0.26 | inactive

The list goes on.
target | viability hit class | caspase hit class | viability robust z-score | caspase robust z-score | call
PHETA1 | no change | no change | -0.16 | 5.08 | inactive
LINC01587 | no change | no change | -0.25 | -0.85 | inactive
HSD17B4 | no change | no change | 0.84 | -0.82 | inactive
MORF4L1 | no change | no change | -0.86 | 3.8 | inactive
TTLL12 | no change | no change | -1.96 | 1.08 | inactive
SREK1 | no change | no change | 1.55 | 0.26 | inactive
KMT5B | no change | no change | -0.12 | 2.64 | inactive
F8 | no change | no change | -1.88 | 0.88 | inactive
MSANTD2 | no change | no change | 0.2 | -0.04 | inactive
RCVRN | no change | no change | -1.75 | 2.91 | inactive
EFS | no change | no change | -0.14 | 1.76 | inactive
GDPD3 | no change | no change | 0.19 | -0.46 | inactive
EPDR1 | no change | no change | -0.3 | -0.78 | inactive
GLIPR1L1 | no change | no change | 0.05 | -0.69 | inactive
C9orf163 | no change | no change | 0.76 | 0.48 | inactive
CBR1 | no change | no change | -1.32 | 1.88 | inactive
CDK17 | no change | no change | -0.06 | 0.28 | inactive
ASTN2 | no change | no change | -1.28 | -0.98 | inactive
EDARADD | no change | no change | 0.82 | 0.05 | inactive
PROP1 | no change | no change | 0.09 | 1.92 | inactive
NT5C1A | no change | no change | 0.46 | -0.12 | inactive
CPVL | no change | no change | 0.91 | -0.53 | inactive
ITPKC | no change | no change | -0.14 | -1.09 | inactive
SLC47A1 | no change | no change | -0.92 | 0.14 | inactive
SMARCC1 | no change | no change | 0.72 | -0.29 | inactive
RNF212 | no change | no change | 0.05 | -1.17 | inactive
PRPF8 | RV2 (reduced viability) | no change | -3.36 | 0.54 | active
NHLH1 | no change | no change | 0.03 | 0.05 | inactive
SEC61G | no change | no change | -1.75 | -0.18 | inactive
ZNF99 | no change | no change | 0.94 | -0.66 | inactive
NTNG1 | no change | no change | 0.94 | -1.04 | inactive
ORMDL2 | no change | no change | -1.93 | 1.64 | inactive
SLC46A2 | no change | no change | -0.57 | 1.8 | inactive
SPMAP1 | no change | no change | 0.21 | 1.77 | inactive
ZNF473 | no change | no change | 0.34 | -0.53 | inactive
ELP3 | no change | no change | -0.68 | 0.44 | inactive
DHRSX | no change | no change | 0.54 | -0.73 | inactive
IL6 | no change | no change | 0.6 | -1 | inactive
CT47A3 | no change | no change | -0.52 | 2.88 | inactive
CD79B | no change | no change | 1.04 | -0.48 | inactive
ADGRE5 | no change | no change | 1.16 | 1.38 | inactive
TRIM21 | no change | no change | 0.07 | -0.68 | inactive
ZIC5 | no change | no change | 1.92 | -0.48 | inactive
KLHL11 | no change | no change | 0.44 | -0.9 | inactive
ATP5F1D | no change | no change | 0.96 | -0.41 | inactive
TPD52L1 | no change | no change | 0.02 | 0.76 | inactive
PNRC1 | no change | no change | 0.33 | 2.84 | inactive
POLN | no change | no change | 0.12 | -0.92 | inactive
